Where “and” joins values, the source holds several entries; their conditions need not be identical. Identical values can stand only once. This continues a long series; more values of the same kind are listed elsewhere.
Experiment: CNS penetration: total and unbound drug concentrations in tumor regions, CSF and plasma (LC-MS/MS, equilibrium dialysis);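 note: drug levels in patient tumor tissue from contrast-enhancing and non-enhancing regions sampled under MRI-guided neuronavigation, with plasma and CSF drawn during surgical resection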
Details: Level 0: Ribociclib 400mg QD + Everolimus 2.5mg QD, per patient

With `CN(C)C(=O)c1cc2cnc(Nc3ccc(N4CCNCC4)cn3)nc2n1C1CCCC1` [Ribociclib, ribociclib] the Ribociclib.CSF (sampling 7-9 Hours) was 0.2038 and 0.0808, the Ribociclib.Non-enhancing.tumor (sampling 7-9 Hours) was 2.43 and 1.3724 and the Ribociclib.Plasma.conc (sampling 7-9 Hours) was 0.475 and 0.3193. For the same compound, the Ribociclib.Unbound.CSF (sampling 7-9 Hours) was 0.1800 and 0.0705, the Ribociclib.Unbound.enhancing (sampling 7-9 Hours) was 0.331 and 0.3214 and the Ribociclib.CSF (sampling 23-25 Hours) was 0.0361. For the same compound, the Ribociclib.Non-enhancing.tumor (sampling 23-25 Hours) was 1.6628 and the Ribociclib.Unbound.CSF (sampling 23-25 Hours) was 0.0295.

Reference: paper PMC13070491, “Single-nucleus transcriptomics, pharmacokinetics, and pharmacodynamics of CDK4/6 and mTOR inhibition in a Phase 0/1 trial of recurrent high-grade glioma” (Neuro-Oncology, 2025)
